# From PubChem BioAssay AID540256 (National Center for Advancing Translational Sciences (NCATS), 2011)
# About 3,700 (1.2%) of roughly 300,000 compounds were called active. The inconclusive results got no clear call from the source; some entries with a clear call stand among them for comparison. The call rests on the fitted dose curve; tested in HEK293 cells. Potencies of inconclusive entries are doubtful fits and often do not repeat.
# Test: qHTS for Inhibitors of binding or entry into cells for Lassa Virus; further: nearly all actives have a fitted effect of over 50% in size
# Settings: Lassa virus pseudotype entry inhibition, cell reporter; series mostly up to 37.9 µM
# Potency means the concentration at half of the fitted maximal effect.
row,SMILES,Potency
1,NC(=S)N/N=C1\CC(c2ccc3c(c2)OCCO3)Oc2ccc(F)cc21 (stereo unspecified),"inconclusive: 25.1 µM [inhibitor, single point]"
2,O=C(CN1CCCCC1)N1CCN(S(=O)(=O)c2ccccc2)C1,inactive
3,Cc1ccc2nc(-c3ccco3)c(Nc3ccc4c(c3)OCCO4)n2c1,"inconclusive: 3.55 µM [activator, full curve]"
4,O=C(Nc1nncs1)c1cc(S(=O)(=O)N2CCOCC2)ccc1Cl,"inconclusive: 10 µM [activator, partial curve, poor fit]"
5,N=c1oc2ccccc2cc1C(=O)Nc1ccccc1,"inconclusive: 2.82 µM [inhibitor, full curve, poor fit]"
6,CCOC(=O)C1C(C(=O)OCC)C1(c1ccccc1)c1ccccc1 (stereo unspecified),"inconclusive: 17.8 µM [inhibitor, single point]"
7,CCCn1c(SCC(=O)c2ccc3c(c2)OCCO3)nnc1-c1ccco1,"inconclusive: 0.073 µM [inhibitor, partial curve, poor fit]"
8,CCCn1ccc2c(OCC(=O)Nc3ccc(OC)c(OC)c3)cccc2c1=O,"inconclusive: 35.5 µM [inhibitor, partial curve, poor fit]"
9,CN(Cc1cccc(F)c1)C(=O)c1cc(=O)[nH]c2ccccc12,"inconclusive: 35.5 µM [activator, single point]"
10,O=C(NCCc1ccc(F)cc1)C(=O)NCC(c1cccs1)S(=O)(=O)c1ccccc1 (stereo unspecified),"inconclusive: 3.55 µM [inhibitor, partial curve, poor fit]"
11,CC1(C)SC(=S)N(NC(=O)Nc2ccccc2)C1N(O)C(=O)Nc1cccc2ccccc12 (stereo unspecified),"inconclusive: 29.1 µM [inhibitor, single point]"
12,Cc1c(NC(=O)C2(c3ccccc3)CCOCC2)c(=O)n(-c2ccccc2)n1C,"inconclusive: 35.5 µM [activator, single point]"
13,CCN(C(=O)CCc1nc(-c2ccccc2F)no1)c1cc(OC)ccc1OC,"inconclusive: 11.2 µM [inhibitor, partial curve]"
14,COc1ccc(C(CNC(=O)c2cc(C)oc2C)N2CCOCC2)cc1 (stereo unspecified),inactive
15,COc1ccc(NC(=O)COc2ccccc2Cl)cc1S(=O)(=O)N1CCCCC1,"inconclusive: 28.2 µM [inhibitor, single point]"
16,Cc1noc(C)c1COC(=O)c1ccc(-c2nc3ccccc3s2)s1,"inconclusive: 11.2 µM [inhibitor, single point]"
17,CSc1nc2ccc(S(=O)(=O)N3CCc4ccccc43)cc2s1,"inconclusive: 16.4 µM [inhibitor, single point]"
18,C/C(=N\NC(=O)c1ccccc1)c1ccc2c(c1)OCO2,"inconclusive: 9.2 µM [activator, partial curve]"
19,O=C(Nc1ccc(F)cc1)Nc1csc2ccccc12,"inconclusive: 35.5 µM [inhibitor, single point]"
20,CC1CCCN(c2nc(-c3cccnc3)nc3scc(-c4ccccc4)c23)C1 (stereo unspecified),"inconclusive: 35.5 µM [inhibitor, single point]"
21,Cc1oc(-c2ccccc2Cl)nc1CSc1nncn2c1cc1occc12,inactive

# Three structures already listed, sorted by formula weight, descending:
row,SMILES,Potency
15,COc1ccc(NC(=O)COc2ccccc2Cl)cc1S(=O)(=O)N1CCCCC1,"inconclusive: 28.2 µM [inhibitor, single point]"
7,CCCn1c(SCC(=O)c2ccc3c(c2)OCCO3)nnc1-c1ccco1,"inconclusive: 0.073 µM [inhibitor, partial curve, poor fit]"
19,O=C(Nc1ccc(F)cc1)Nc1csc2ccccc12,"inconclusive: 35.5 µM [inhibitor, single point]"

# (more compounds)

row,SMILES,Potency
1,COc1ccc(C(=O)N/C(=C\c2ccccc2)C(=O)N2CCOCC2)cc1,inactive
2,CCOC(=O)c1c(C)[nH]c(C(=O)NCCc2ccc(OC)c(OC)c2)c1C,"inconclusive: 35.5 µM [inhibitor, single point]"
3,O=C(CN(C1CC1)S(=O)(=O)c1ccc(S(=O)(=O)NC2CCCCC2)cc1)Nc1ccccc1,"inconclusive: 12.6 µM [inhibitor, partial curve]"
4,COc1ccccc1N1CCN(C(=O)c2ccc3c(c2)CCN3S(=O)(=O)c2ccccc2)CC1,inactive
5,CCN(CC)CC(=O)Nc1sc2c(c1C(=O)c1ccccc1OC)CCC2,active: 11.2 µM
6,C=CCn1c(-c2cccc([N+](=O)[O-])c2)n[nH]c1=S,"inconclusive: 0.316 µM [inhibitor, full curve, poor fit]"
7,Cc1ccc(CNC(=O)C(C)n2c(=O)cc(-c3ccccc3)c3c(C)nn(C)c32)cc1 (stereo unspecified),inactive
8,CN1/C(=C\C(=O)Nc2ccc(Br)cc2)C(C)(C)c2ccccc21,"inconclusive: 6.31 µM [inhibitor, single point]"
9,Cc1cccc(C(=O)Nc2ccc(C(=O)/C=C/c3cccnc3)cc2)c1,"inconclusive: 11.2 µM [inhibitor, single point]"
10,COc1ccc(C(=O)Nc2ccccc2N2CCOCC2)cc1[N+](=O)[O-],"inconclusive: 6.51 µM [inhibitor, single point]"
11,CCc1ccccc1NC(=O)CN(C1CCCCC1)S(C)(=O)=O,"inconclusive: 0.631 µM [inhibitor, partial curve, poor fit]"
12,COCC(=O)NCc1ccc2c(c1)cc(C)n2C,inactive
13,Cc1cccc(C(=O)Nc2ccc(S(=O)(=O)N3CCCCC3c3cccnc3)cc2)c1 (stereo unspecified),"inconclusive: 25.1 µM [inhibitor, single point]"
14,CN(C)c1cc(NC(=O)CNC(C)(C)CC(C)(C)C)c2ccccc2n1,"inconclusive: 22.4 µM [inhibitor, partial curve, poor fit]"
15,COc1ccc(Cl)cc1S(=O)(=O)N1CCN(C(=O)c2cc(-c3ccc(Br)cc3)n[nH]2)CC1,"inconclusive: 35.5 µM [inhibitor, single point]"
16,O=C(CN1CCOc2ccccc21)NCc1ccccc1,"inconclusive: 7.31 µM [activator, partial curve, poor fit]"
17,Cc1ccc2nc(-c3ccncc3)cc(C(=O)Nc3ccc(F)cc3C)c2c1,"inconclusive: 0.562 µM [activator, single point]"
18,O=C(Nc1ccc(-c2cn3ccsc3n2)cc1)C1CC1,"inconclusive: 12.6 µM [inhibitor, single point]"
19,O=C(CSc1nc(=O)[nH]c2c1CCC2)NCc1ccc(F)cc1,inactive
20,Cc1cc(CNC(=O)c2cccc([N+](=O)[O-])c2C)c2ccccc2n1,"inconclusive: 2.82 µM [inhibitor, partial curve]"
